The list shows a part of the results.

This assay addresses T1, OsSMF1 (Oryza sativa, UniProt Q6ZLB0 1-436).
T1 sequence: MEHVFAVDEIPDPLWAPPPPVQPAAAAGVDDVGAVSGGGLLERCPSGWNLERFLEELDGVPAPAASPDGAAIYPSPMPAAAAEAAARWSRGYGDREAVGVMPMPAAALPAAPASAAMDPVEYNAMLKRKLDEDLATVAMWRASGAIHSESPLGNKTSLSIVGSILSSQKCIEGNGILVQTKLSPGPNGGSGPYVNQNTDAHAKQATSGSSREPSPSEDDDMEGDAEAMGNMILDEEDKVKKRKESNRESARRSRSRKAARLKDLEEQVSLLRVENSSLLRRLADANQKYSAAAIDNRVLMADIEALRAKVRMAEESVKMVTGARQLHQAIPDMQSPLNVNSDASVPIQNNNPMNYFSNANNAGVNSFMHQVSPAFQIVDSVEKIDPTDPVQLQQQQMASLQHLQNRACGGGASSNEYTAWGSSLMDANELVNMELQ
The assay is described as follows: protein-binding microarray (RPBM); PBS, 2% BSA, 51.3 ng/ul salmon testes DNA, 50 uM zinc acetate, 200 nM TF, 25 C, 1 h; high values mean tight binding. The conditions noted are these: protein: recombinant; tags: N-terminal polyhistidine and DsRed monomer fusion (pET32a); chain copies: 2; label: CyDye5-dUTP incorporated in the synthesized complementary strand; 3' TTTTT single-stranded linker to array surface; dsDNA, one strand shown. The method in brief:
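For the binding signal, per-feature fluorescence intensity was read in arbitrary units on an Axon 4000B scanner. Before scanning, a 2% BSA-blocked custom Agilent array made double-stranded with Cy5-dUTP was washed after 1 h at 25 °C with 200 nM protein and 50 µM zinc acetate. The proteins were Ni–NTA-purified transcription factors with N-terminal polyhistidine and DsRed fusions, expressed in E. coli BL21-CodonPlus.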
Take “AGCTACCACTTCACACTCAGCTAGTCAAGATTACCTGGCACGGAGTCACCTAGTGCAG”: the binding signal is 3400 fluorescence intensity (a.u.).

“TGGAAGGAAGAGCAAACAAAGTTGGCTGCCACGTCAGAAACGGAGTCACCTAGTGCAG”: the binding signal is 14000 fluorescence intensity (a.u.).

With “TATCGATTCCAGCCAACGATGACACTATGACTTCAATTCGCGGAGTCACCTAGTGCAG”, the binding signal is 4280 fluorescence intensity (a.u.).

On to “TAATTAAATTGTCATATCACTTCTTAACTTATTGGACTAACGGAGTCACCTAGTGCAG”, for which the binding signal is 3220 fluorescence intensity (a.u.).

As for “CTGCCGATCCTAGGGTGCCGCCGTCGGATGCAGTCTAGGCCGGAGTCACCTAGTGCAG”, the binding signal was 3190 fluorescence intensity (a.u.).

Take “GCCAGCCCACCTCACCTGTTCCACAATACTAGTACAGCCCCGGAGTCACCTAGTGCAG”: the binding signal is 22300 fluorescence intensity (a.u.).

Regarding “TATCACCGGCACGTGTCACTCCTAGGCGTTGTCAAACGTCCGGAGTCACCTAGTGCAG”, the binding signal is 7220 fluorescence intensity (a.u.).

For “CGTTAGTTACACACCGCACTCACACTGCCACGTGTGATCACGGAGTCACCTAGTGCAG”, the binding signal is 16300 fluorescence intensity (a.u.).

Turning to “AAACAAGTTCCATGTCACACCGCATATTTCGAAATTAGCACGGAGTCACCTAGTGCAG”, the binding signal is 5020 fluorescence intensity (a.u.).

Take “AGCTTTCCCATCGCCGCCGCGTCCATGGGGCCAGACCAACCGGAGTCACCTAGTGCAG”: the binding signal is 3430 fluorescence intensity (a.u.).

With “TGGTTCAAGTACCCACTGAGGTATGTAACACATTTGATCGCGGAGTCACCTAGTGCAG”, the binding signal was 36300 fluorescence intensity (a.u.).

For the sequence “ATGTAACTGTTGCTTCTAACTTCTGTTCCCCGTCACTGTGCGGAGTCACCTAGTGCAG”, the binding signal was 6280 fluorescence intensity (a.u.).

Regarding “TGAAACGACGTCATCCAACCCGCGGGGTCTTTGCACGAGCCGGAGTCACCTAGTGCAG”, the binding signal is 3720 fluorescence intensity (a.u.).

“GAGAGAGAGAGGAGAAGGCAGCCACGTGGTGGAGCAGGAGCGGAGTCACCTAGTGCAG”: the binding signal was 4170 fluorescence intensity (a.u.).

“CACTTATATTAGGGGATGGAGGGAGTAGTACATTAACATCCGGAGTCACCTAGTGCAG”: the binding signal is 3400 fluorescence intensity (a.u.).

As for “GGGTTGGTGAGGCGGTGGTCGCCGTGGACTCGGCGGCTGACGGAGTCACCTAGTGCAG”, the binding signal was 3240 fluorescence intensity (a.u.).

For the sequence “ACTATTAGGTATGTGGTATCCATAACCATGACAATGACCTCGGAGTCACCTAGTGCAG”, the binding signal was 9860 fluorescence intensity (a.u.).

On to “AGATGAAGTCATTAGTGATAAGTCAGCTTGACTCATCACACGGAGTCACCTAGTGCAG”, for which the binding signal was 5670 fluorescence intensity (a.u.).

For the sequence “TTCGATTCCACGCAAGATTCCTCATGCTTCGCTAGCCATTCGGAGTCACCTAGTGCAG”, the binding signal was 3970 fluorescence intensity (a.u.).

As to “ACTCCTACGCATGTCTGGCGTCACCCTGATGAGGCCAAATCGGAGTCACCTAGTGCAG”, the binding signal is 5160 fluorescence intensity (a.u.).

As to “TGTCTGCGTCGTCACACTCTCACACACCTCTCGATTCATCCGGAGTCACCTAGTGCAG”, the binding signal was 5850 fluorescence intensity (a.u.).

For the sequence “CATCGAGCATGTGAGCAGTCGCCGGCACACTCTACCTCCTCGGAGTCACCTAGTGCAG”, the binding signal is 25900 fluorescence intensity (a.u.).

In the case of “CTGGAATCTGAGGGGAACCACGTCACGTACACAAGTATATCGGAGTCACCTAGTGCAG”, the binding signal is 11800 fluorescence intensity (a.u.).

Turning to “ACAATATTGTCCTGTGCCTTACGTGCGCCCGCAGCCGCGACGGAGTCACCTAGTGCAG”, the binding signal was 4700 fluorescence intensity (a.u.).

For the sequence “TGAACCGGCCGGTTTTCATGTGAACCGTGAACCGTAATAACGGAGTCACCTAGTGCAG”, the binding signal was 3240 fluorescence intensity (a.u.).

With “TTGTGCAACGTCTTGTTATGAGTTAGCATCATGTGTAGCACGGAGTCACCTAGTGCAG”, the binding signal was 3810 fluorescence intensity (a.u.).

Take “GAGGATTGACTGGTTAGGGTTAGATGACTCAAAGGGCATTCGGAGTCACCTAGTGCAG”: the binding signal is 3640 fluorescence intensity (a.u.).

Turning to “ACGAAAGCGTCACGTTAATACCACGTGGGACGAAGATCTACGGAGTCACCTAGTGCAG”, the binding signal was 6550 fluorescence intensity (a.u.).

As for “TCACATCCATGGGCCCACTTGTCATCCTCACGCTCTATGACGGAGTCACCTAGTGCAG”, the binding signal was 3240 fluorescence intensity (a.u.).

As to “GTGATGACGAGTTCGTCTTCATCGCTTCCGGTGTCGGCTCCGGAGTCACCTAGTGCAG”, the binding signal is 3300 fluorescence intensity (a.u.).

Take “CGATGGTGTGTGGGAAGGAGAAAAGGGATGTGGTGATGTGCGGAGTCACCTAGTGCAG”: the binding signal was 4250 fluorescence intensity (a.u.).

For “TGTCCATTCTTCTTGTTGTTGTTCTTGCTCGGGTGGTTAGCGGAGTCACCTAGTGCAG”, the binding signal was 3260 fluorescence intensity (a.u.).

As for “CCGAATCGATGGCGACCCAGCTGGTGCGTCCCCGTCCCCGCGGAGTCACCTAGTGCAG”, the binding signal was 4120 fluorescence intensity (a.u.).

Take “ATATTTTAAGGGAGTCCATGTGGACTTAATTCCTAGTGGCCGGAGTCACCTAGTGCAG”: the binding signal is 4360 fluorescence intensity (a.u.).

As for “TTCCAATGAGAGACTAGTTGATCTTCCAATGGAGTAGCTACGGAGTCACCTAGTGCAG”, the binding signal was 18800 fluorescence intensity (a.u.).

In the case of “GGCCCCACATGTCAGCTACCGCAACAGCTTACTACTTACTCGGAGTCACCTAGTGCAG”, the binding signal was 4120 fluorescence intensity (a.u.).

Regarding “AAGACCAAGAATTGATGCCGTGGAACTTGCGTCGGACTTTCGGAGTCACCTAGTGCAG”, the binding signal was 4670 fluorescence intensity (a.u.).

Take “AAGCTTCTTTCCCTCTTACGTCGGCACACGTCACGCAGCTCGGAGTCACCTAGTGCAG”: the binding signal was 19700 fluorescence intensity (a.u.).

Take “GATGGTGTTTTATGGCCGAGTTAATGGGCTTTTATGGGCCCGGAGTCACCTAGTGCAG”: the binding signal is 21200 fluorescence intensity (a.u.).

With “ATCGCCGCCGGCGACACGCCATCTCAAATTCCGGTCGGACCGGAGTCACCTAGTGCAG”, the binding signal is 5400 fluorescence intensity (a.u.).

In the case of “CACAGCCTTGTGTACAAATCACTTTGCACGTGACATAGCTCGGAGTCACCTAGTGCAG”, the binding signal was 3800 fluorescence intensity (a.u.).

On to “AAACTTCTAACTTTTCCGTCACATCGTTCCAATTTCAACCCGGAGTCACCTAGTGCAG”, for which the binding signal is 3240 fluorescence intensity (a.u.).

Take “CCGCACGCGCTCCCTTCACCCACCTCGATCGAGCTCCATGCGGAGTCACCTAGTGCAG”: the binding signal was 3570 fluorescence intensity (a.u.).

Take “CGGCTCCCGGGACACGACACAGCGCACGCCCAGAGCGCGCCGGAGTCACCTAGTGCAG”: the binding signal was 3700 fluorescence intensity (a.u.).

“CACTCCAAACATGTTTACATGTCGACGGCTGACAAGATATCGGAGTCACCTAGTGCAG”: the binding signal was 3280 fluorescence intensity (a.u.).

In the case of “TTCGAATTTCGCCCTTACGATGTTAGCAACGGTGCTGACGCGGAGTCACCTAGTGCAG”, the binding signal is 4700 fluorescence intensity (a.u.).

Turning to “TTCTTCCCTTTGAGCAGCAGCAGCAGTGAGCCGTCCTGTGCGGAGTCACCTAGTGCAG”, the binding signal is 32300 fluorescence intensity (a.u.).

On to “TGGTCAAAAGAAATTGTTTCCTCCATTTCCTCCTCAGCACCGGAGTCACCTAGTGCAG”, for which the binding signal was 3730 fluorescence intensity (a.u.).

Take “CAGCTGGGCCCCACGCGGCAGTGACACGCAACGGACGTGGCGGAGTCACCTAGTGCAG”: the binding signal was 9030 fluorescence intensity (a.u.).

Turning to “CAGCTGGGTGCTGATGACTGTCTTGTCATCATTTGATTATCGGAGTCACCTAGTGCAG”, the binding signal is 6280 fluorescence intensity (a.u.).

“ATTTGATAAATGGGATGCCACGTGTACACCACGTCAACAGCGGAGTCACCTAGTGCAG”: the binding signal was 31000 fluorescence intensity (a.u.).

Take “ATCTTTTGGCTGCCAGCTTGGTGAGGTTACTAATAAGCTGCGGAGTCACCTAGTGCAG”: the binding signal was 3290 fluorescence intensity (a.u.).

Take “CCTGTTCGATGGCCCCGGGAACACCCATGAGCGTGGCACACGGAGTCACCTAGTGCAG”: the binding signal is 3510 fluorescence intensity (a.u.).

As for “ATTCCAACATTTATAATGTACAAACACAGAACAGGACATGCGGAGTCACCTAGTGCAG”, the binding signal was 3230 fluorescence intensity (a.u.).
